One data set deals with T1, His-MBP-ZNF384 (human).
T1 sequence (looked up): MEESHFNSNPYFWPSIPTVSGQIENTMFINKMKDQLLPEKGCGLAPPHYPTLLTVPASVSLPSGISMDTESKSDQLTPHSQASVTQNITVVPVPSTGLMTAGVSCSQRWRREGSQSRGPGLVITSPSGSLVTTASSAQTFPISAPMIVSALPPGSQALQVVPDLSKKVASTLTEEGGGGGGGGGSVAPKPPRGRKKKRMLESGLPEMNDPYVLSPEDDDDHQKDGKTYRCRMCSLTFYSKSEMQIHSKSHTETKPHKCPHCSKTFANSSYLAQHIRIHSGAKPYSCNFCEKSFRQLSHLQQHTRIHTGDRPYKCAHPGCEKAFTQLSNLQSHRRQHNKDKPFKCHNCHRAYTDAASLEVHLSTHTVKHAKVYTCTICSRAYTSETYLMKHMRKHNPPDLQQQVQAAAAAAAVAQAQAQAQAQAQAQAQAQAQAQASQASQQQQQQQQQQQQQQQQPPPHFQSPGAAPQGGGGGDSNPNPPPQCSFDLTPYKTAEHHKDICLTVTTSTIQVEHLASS
Briefly: pull-down. The following applies: Pull-down: 10 mM Tris pH 7.5, 150 mM KCl, 5 mM MgCl2, 0.25% Tween-20, 3.5 mM DTT, 5% glycerol, 0.1% BSA, 4 C, recombinant protein, residues 1-516, protein details: His6-MBP.

Data set [1] concerns His-MBP-C2H2 (ZNF384 C2H2 domain) (human). Briefly: pull-down. The note with it: Pull-down: 10 mM Tris pH 7.5, 150 mM KCl, 5 mM MgCl2, 0.25% Tween-20, 3.5 mM DTT, 5% glycerol, 0.1% BSA, 4 C, recombinant protein, protein details: His6-MBP.
Data set [2] has the same test system. Briefly: BLI. The note with it: 400 nM protein, BLI: 10 mM Tris pH 7.5, 150 mM KCl, 5 mM MgCl2, 0.05% Tween-20, 0.1% BSA, 1 mM DTT, 298 K, recombinant protein, protein details: His6-MBP.
The subject of data set [3] is His-MBP-C-terminus (ZNF384) (human). Briefly: pull-down. The following applies: very poor to no binding; Pull-down: 10 mM Tris pH 7.5, 150 mM KCl, 5 mM MgCl2, 0.25% Tween-20, 3.5 mM DTT, 5% glycerol, 0.1% BSA, 4 C; recombinant protein; protein details: His6-MBP; label: 5' biotin on strand 1.
The test system of a further data set is His-MBP. Put plainly: pull-down. The following applies: not detectable; Pull-down: 10 mM Tris pH 7.5, 150 mM KCl, 5 mM MgCl2, 0.25% Tween-20, 3.5 mM DTT, 5% glycerol, 0.1% BSA, 4 C; recombinant protein; protein details: His6-MBP; label: 5' biotin on strand 1.
Data set [4] deals with His-MBP-N-terminus (ZNF384) (human). Put plainly: pull-down. The note with it: very poor to no binding; Pull-down: 10 mM Tris pH 7.5, 150 mM KCl, 5 mM MgCl2, 0.25% Tween-20, 3.5 mM DTT, 5% glycerol, 0.1% BSA, 4 C; recombinant protein; protein details: His6-MBP; label: 5' biotin on strand 1.
Data set [5] deals with His-MBP-C-terminus (ZNF384) (human). Briefly: BLI. The following applies: 400 nM protein, very poor to no binding; BLI: 10 mM Tris pH 7.5, 150 mM KCl, 5 mM MgCl2, 0.05% Tween-20, 0.1% BSA, 1 mM DTT, 298 K; recombinant protein; protein details: His6-MBP; label: 5' biotin on strand 1.
Data set [6] concerns His-MBP-N-terminus (ZNF384) (human). Briefly: BLI. The note with it: 400 nM protein, very poor to no binding; BLI: 10 mM Tris pH 7.5, 150 mM KCl, 5 mM MgCl2, 0.05% Tween-20, 0.1% BSA, 1 mM DTT, 298 K; recombinant protein; protein details: His6-MBP; label: 5' biotin on strand 1.
The mark [7] stands for this setting: seemingly lower affinity than ssDNA, label: 5' biotin on strand 2.
The mark [8] stands for this setting: label: 5' biotin, single-stranded DNA.

For some assays here: Weaker means in comparison with the reference protein, sequence or condition of that experiment. For some assays here: Where a protein sequence is shown, tags need not be part of it. For at least one entry, the source does not settle the construct or the ends of the probe. For some assays here: Negatives hold for the conditions tested. For some assays here: At least one verdict was read from the data and is not stated in words by the source.

Take “GCGATCATGACGTAGACGATAGCGTTCTTTTTTTTTCTTTTTCT (double strand) [dsDNA3'-T]”: the binding result in the data set with His-MBP-ZNF384 (human) (bound poorly, if at all, to dsDNA, label: 5' biotin on strand 1) was “binds more weakly”.
Consider “TTCTTTTTTTTTCTTTTTCTGCGATCATGACGTAGACGATAGCG / CGCTATCGTCTACGTCATGATCGC [5' overhang DNA]”, for which the binding result in data set [1] (setting [7]) and in data set [2] (setting [7]) was “binds” in each case.
With “CGCTATCGTCTACGTCATGATCGCAGAAAAAGAAAAAAAAAGAA [ssDNA A-strand]”, the binding result in the data set on His-MBP-ZNF384 (human) (T-rich preferred as opposed to A-rich ssDNA, label: 5' biotin, single-stranded DNA) was “binds more weakly”.
As for “GCGATCATGACGTAGACGATAGCGTTCTTTTTTTTTCTTTTTCT / CGCTATCGTCTACGTCATGATCGC [3' overhang DNA]”, the binding result is recorded as “no binding” in data set [3]; “no binding” in the data set with His-MBP; “binds” in data set [1] (seemingly lower affinity than ssDNA, label: 5' biotin on strand 1); “no binding” in data set [4]; “no binding” in data set [5]; “binds” in data set [2] (comparable to full length, label: 5' biotin on strand 1). Also, the binding result in data set [6] was “no binding”.
On to “GCGATCATGACGTAGACGATAGCGTTCTTTTTTTTTCTTTTTCT [ssDNA T-strand (ssDNA(T))]”, for which the binding result in data set [1] (setting [8]) and in data set [2] (setting [8]) was “binds” in each case.
“TTCTTTTTTTTTCTTTTTCTGCGATCATGACGTAGACGATAGCG (double strand) [dsDNA5'T]”: the binding result with His-MBP-ZNF384 (human) (bound poorly, if at all, to dsDNA, label: 5' biotin on strand 2) is given as “binds more weakly”.
